Measurements reported in PubChem BioAssay AID1259308 (NCATS, 2017).
The whole screen tested about 59,000 reagents; below is a part drawn at random. About 1,510 of all reagents (2.6%) were called active. 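Calls use total luciferase alone and ignore viability, so some active siRNAs may act by altering cell number.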 Unmarked entries are inactive. The numbers tell different reagents against one gene apart. Reagent sequences are not shown.

- Aim: 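Genes whose loss raises luciferase production in HEK293 cells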 (primary screen)
- Cell system: human HEK293 embryonic kidney cells stably expressing firefly luciferase (HEK-CMV-Luc2-Hygro)
- Reagent: single siRNA against human genes, 0.8 pmol siRNA per well
- Timing: 72 h
- Measurement: 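Luciferase light (ONE-Glo) measured on one replicate plate set and viability (CellTiter-Glo) on the other, scaled to a negative control siRNA, with robust z-scores and luciferase per cell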
- Scale: total luciferase, z-score and total luciferase, % of control: higher = more reporter protein produced; luciferase per cell, z-score: higher = more reporter output per viable cell; viable cells, % of control: higher = more viable cells
- Hit rule: 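Active when the median/MAD z-score for overall luciferase is greater than 3; a gene was taken forward for validation with new siRNAs if at least two of its three siRNAs passed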
- Calls: active = raised luciferase; inactive = no rise

no.	gene symbol	reagent	total luciferase, z-score	total luciferase, % of control	luciferase per cell, z-score	viable cells, % of control
1	DNAJC28	1	-1.11	59.8	-0.44	75.1
2	DNAJC28	2	-1.68	48.5	-0.732	65.7
3	DNAJC28	3	-0.842	65.1	-0.546	84
4	CIMIP6	1	1.59	113	0.808	102
5	CIMIP6	2	-0.423	73.5	-0.312	89.1
6	CIMIP6	3	-1.79	46.3	-1.29	72.5
7	DXO	1	-0.28	76.3	0.0577	84
8	DXO	2	-1.25	57.1	-0.956	82.1
9	DXO	3	1.01	102	0.863	90.9
10	GPATCH3	1	-0.349	74.9	-0.415	93.4
11	GPATCH3	2	-0.418	73.6	-1.12	110
12	GPATCH3	3	1.81	118	1.73	83.5
13	ARPIN	1	2.64	134	2.14	85.5
14	ARPIN	2	1.15	105	1.08	88.2
15	ARPIN	3	0.406	90	-0.384	111
16	OR1N1	1	2.5	132	2.07	85.4
17	OR1N1	2	-1.32	55.7	-0.858	78
18	OR1N1	3	0.915	100	0.397	101
19	CDH5	1	-1.56	50.9	-1.73	89.7
20	CDH5	2	0.279	87.4	0.239	91.8
21	CDH5	3	-1.34	55.2	-1.47	90.9
22	DNASE1L3	1	-1.37	54.6	-1.26	85
23	DNASE1L3	2	-0.191	78.1	-0.291	94.2
24	DNASE1L3	3	-1.28	56.4	-1.28	88.1
25	USP45	1	0.0651	83.2	-0.451	105
26	USP45	2	0.29	87.7	0.563	84.5
27	USP45	3	0.82	98.2	0.761	89.8
28	ZNF644	1	0.409	90	0.952	78.3
29	ZNF644	2	-1.69	48.3	-2	91.3
30	ZNF644	3	0.261	87.1	0.513	85
31	PTP4A2	1	2.21	126	2.09	81.2
32	PTP4A2	2	-0.876	64.5	-1.33	102
33	PTP4A2	3	2.16	125	0.878	111

Laid out differently: results already given.
{"gene symbol":"CDH5","reagent":2,"total luciferase, z-score":0.279,"total luciferase, % of control":87.4,"luciferase per cell, z-score":0.239,"viable cells, % of control":91.8}
{"gene symbol":"CDH5","reagent":3,"total luciferase, z-score":-1.34,"total luciferase, % of control":55.2,"luciferase per cell, z-score":-1.47,"viable cells, % of control":90.9}
{"gene symbol":"DNASE1L3","reagent":1,"total luciferase, z-score":-1.37,"total luciferase, % of control":54.6,"luciferase per cell, z-score":-1.26,"viable cells, % of control":85}
{"gene symbol":"DNASE1L3","reagent":2,"total luciferase, z-score":-0.191,"total luciferase, % of control":78.1,"luciferase per cell, z-score":-0.291,"viable cells, % of control":94.2}

Next entries follow.
no.	gene symbol	reagent	total luciferase, z-score	total luciferase, % of control	luciferase per cell, z-score	viable cells, % of control
34	MTERF2	1	3.21 (active)	146	2.51	84.1
35	MTERF2	2	-0.708	67.8	-0.564	87.9
36	MTERF2	3	-0.377	74.4	-0.269	89.2
37	LDAF1	1	0.771	97.2	0.495	95.4
38	LDAF1	2	-1.2	58.1	-0.811	80.4
39	LDAF1	3	0.0427	82.7	-0.625	109
40	LOC645100 (retired record)	1	0.209	86	0.584	82.4
41	LOC645100 (retired record)	2	-0.0479	80.9	0.0939	88.2
42	LOC645100 (retired record)	3	-0.429	73.4	0.936	64.1
43	CHCHD5	1	-0.759	66.8	-0.984	96.7
44	CHCHD5	2	2.93	140	3.32	65.3
45	CHCHD5	3	0.104	84	0.196	89.1
46	SULT1A4	1	0.603	93.9	1.72	66.7
47	SULT1A4	2	-0.703	67.9	0.285	70.4
48	SULT1A4	3	3.17 (active)	145	2.04	94.8
49	TRPM5	1	1.21	106	1.01	90.8
50	TRPM5	2	0.9	99.8	1.27	79.8
51	TRPM5	3	-0.679	68.4	-0.328	83.3
52	ZNF322	1	-0.255	76.8	-0.707	103
53	ZNF322	2	0.0312	82.5	-0.165	96.3
54	ZNF322	3	4 (active)	161	4.27	58.7
55	WWC1	1	0.846	98.7	-0.0336	111
56	WWC1	2	-1.11	59.7	-1.14	90.2
57	WWC1	3	0.0261	82.4	0.166	88.1
